# Test results published in PMC3979416 (The Journal of Biological Chemistry, 2014).
# Legend:
# BRD4 BD1 N140A = conditions: TSA
# BRD4 BD1 Y97F = conditions: TSA
# BRD4 BD1 wild type = conditions: WT, TSA
smiles,measurement,setting,value
"Cc1sc2c(c1C)C(c1ccc(Cl)cc1)=N[C@@H](CC(=O)OC(C)(C)C)c1nnc(C)n1-2 [JQ1, tert-butyl[(6S)-4-(4-chlorophenyl)-2,3,9-trimethyl-6H-thieno[3,2-f][1,2,4]triazolo[4,3-a][1,4]diazepin-6-yl]acetate]",ΔG°,BRD4 BD1 N140A,-11 kcal/mol
same,−TΔS°,BRD4 BD1 N140A,-8.15 kcal/mol
same,ΔH°b,BRD4 BD1 N140A; 100 μM JQ1 vs DMSO,-2.84 kcal/mol
same,ΔG°,BRD4 BD1 Y97F,-10.9 kcal/mol
same,−TΔS°,BRD4 BD1 Y97F,-7.19 kcal/mol
same,ΔH°b,BRD4 BD1 Y97F; 100 μM JQ1 vs DMSO,-3.7 kcal/mol
same,ΔG°,BRD4 BD1 wild type,-12.3 kcal/mol
same,−TΔS°,BRD4 BD1 wild type,-8.96 kcal/mol
same,ΔH°b,BRD4 BD1 wild type; 100 μM JQ1 vs DMSO,-3.3 kcal/mol
